No constants are given. Whether binding was seen depends on the method and setting. Binding seen in cells or lysates may run through a third protein. Some binding calls cover weakened binding; strength is not graded here.
How the values were obtained:
Test in all cases: co-IP; K562 nuclear extracts treated with benzonase, 125 mM KCl in HENG buffer, pre-cleared with IgG beads, antibody cross-linked to protein G magnetic beads, overnight at 4°C; washes with HENG plus 300 mM KCl; western blot; IP with TFII-I antibodies and reverse IP with antibodies against the partners
[1] = molecular target: TFII-I (endogenous, K562 nuclear extract) (human (endogenous in K562)) (UniProt P78347)
[2] = molecular target: SMARCC2 (human (endogenous in K562)) (UniProt Q8TAQ2)
[3] = molecular target: SMARCC1 (human (endogenous in K562)) (UniProt Q92922)
[4] = molecular target: topoisomerase II β (human (endogenous in K562)) (UniProt Q02880)
[5] = molecular target: TBP-associated factor (TAF) 15 (human (endogenous in K562)) (UniProt Q92804)
[6] = molecular target: topoisomerase II α (human (endogenous in K562)) (UniProt P11388)
[7] = molecular target: T1, transcription elongation factor Elongin A (human (endogenous in K562)) (UniProt Q14241)
T1 sequence: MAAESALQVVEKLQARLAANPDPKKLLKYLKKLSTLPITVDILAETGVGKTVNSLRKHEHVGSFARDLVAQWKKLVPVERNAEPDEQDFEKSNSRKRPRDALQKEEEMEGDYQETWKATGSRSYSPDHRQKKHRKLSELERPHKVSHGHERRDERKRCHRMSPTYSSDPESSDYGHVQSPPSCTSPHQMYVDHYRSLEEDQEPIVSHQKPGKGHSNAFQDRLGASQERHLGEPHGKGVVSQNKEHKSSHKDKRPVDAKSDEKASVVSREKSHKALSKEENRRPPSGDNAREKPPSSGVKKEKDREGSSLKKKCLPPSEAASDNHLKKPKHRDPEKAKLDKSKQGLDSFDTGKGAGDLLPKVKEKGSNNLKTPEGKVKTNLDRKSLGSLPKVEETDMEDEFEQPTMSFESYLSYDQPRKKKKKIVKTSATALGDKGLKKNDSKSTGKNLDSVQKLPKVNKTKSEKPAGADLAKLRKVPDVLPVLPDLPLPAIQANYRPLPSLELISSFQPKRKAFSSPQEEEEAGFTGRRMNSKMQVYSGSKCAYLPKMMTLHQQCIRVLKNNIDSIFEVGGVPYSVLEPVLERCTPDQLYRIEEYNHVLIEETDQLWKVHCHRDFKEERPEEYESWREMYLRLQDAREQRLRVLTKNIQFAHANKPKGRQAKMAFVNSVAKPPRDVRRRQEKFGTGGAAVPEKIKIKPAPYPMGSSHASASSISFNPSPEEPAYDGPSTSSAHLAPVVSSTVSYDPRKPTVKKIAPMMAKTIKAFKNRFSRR

Chains of the proteins cited; added tags and fusions are not shown.
UniProt P78347: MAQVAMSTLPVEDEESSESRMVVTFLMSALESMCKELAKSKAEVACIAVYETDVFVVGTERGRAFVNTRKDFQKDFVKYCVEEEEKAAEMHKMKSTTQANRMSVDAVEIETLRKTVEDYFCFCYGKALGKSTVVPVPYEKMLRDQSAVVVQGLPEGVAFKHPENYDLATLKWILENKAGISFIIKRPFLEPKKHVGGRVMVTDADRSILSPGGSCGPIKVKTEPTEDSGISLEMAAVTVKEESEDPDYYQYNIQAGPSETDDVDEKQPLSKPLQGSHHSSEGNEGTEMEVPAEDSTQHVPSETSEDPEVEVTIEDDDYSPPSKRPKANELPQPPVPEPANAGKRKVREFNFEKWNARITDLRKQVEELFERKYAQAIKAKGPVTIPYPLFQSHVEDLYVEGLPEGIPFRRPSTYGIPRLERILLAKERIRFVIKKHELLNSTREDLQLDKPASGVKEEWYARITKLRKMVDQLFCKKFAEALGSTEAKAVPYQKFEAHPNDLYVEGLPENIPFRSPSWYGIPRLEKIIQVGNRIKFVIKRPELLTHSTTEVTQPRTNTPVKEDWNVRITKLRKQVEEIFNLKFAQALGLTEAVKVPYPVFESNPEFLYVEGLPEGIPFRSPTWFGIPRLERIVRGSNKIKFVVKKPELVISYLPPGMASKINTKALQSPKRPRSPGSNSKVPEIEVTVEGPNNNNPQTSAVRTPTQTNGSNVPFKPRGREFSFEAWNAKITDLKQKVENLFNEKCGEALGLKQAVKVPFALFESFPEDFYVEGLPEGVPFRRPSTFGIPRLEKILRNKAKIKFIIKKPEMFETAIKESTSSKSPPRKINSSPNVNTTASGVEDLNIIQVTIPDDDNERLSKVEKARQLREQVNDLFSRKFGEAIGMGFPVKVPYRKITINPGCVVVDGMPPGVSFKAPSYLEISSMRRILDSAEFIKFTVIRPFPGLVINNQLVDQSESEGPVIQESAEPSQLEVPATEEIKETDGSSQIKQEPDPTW
UniProt Q8TAQ2: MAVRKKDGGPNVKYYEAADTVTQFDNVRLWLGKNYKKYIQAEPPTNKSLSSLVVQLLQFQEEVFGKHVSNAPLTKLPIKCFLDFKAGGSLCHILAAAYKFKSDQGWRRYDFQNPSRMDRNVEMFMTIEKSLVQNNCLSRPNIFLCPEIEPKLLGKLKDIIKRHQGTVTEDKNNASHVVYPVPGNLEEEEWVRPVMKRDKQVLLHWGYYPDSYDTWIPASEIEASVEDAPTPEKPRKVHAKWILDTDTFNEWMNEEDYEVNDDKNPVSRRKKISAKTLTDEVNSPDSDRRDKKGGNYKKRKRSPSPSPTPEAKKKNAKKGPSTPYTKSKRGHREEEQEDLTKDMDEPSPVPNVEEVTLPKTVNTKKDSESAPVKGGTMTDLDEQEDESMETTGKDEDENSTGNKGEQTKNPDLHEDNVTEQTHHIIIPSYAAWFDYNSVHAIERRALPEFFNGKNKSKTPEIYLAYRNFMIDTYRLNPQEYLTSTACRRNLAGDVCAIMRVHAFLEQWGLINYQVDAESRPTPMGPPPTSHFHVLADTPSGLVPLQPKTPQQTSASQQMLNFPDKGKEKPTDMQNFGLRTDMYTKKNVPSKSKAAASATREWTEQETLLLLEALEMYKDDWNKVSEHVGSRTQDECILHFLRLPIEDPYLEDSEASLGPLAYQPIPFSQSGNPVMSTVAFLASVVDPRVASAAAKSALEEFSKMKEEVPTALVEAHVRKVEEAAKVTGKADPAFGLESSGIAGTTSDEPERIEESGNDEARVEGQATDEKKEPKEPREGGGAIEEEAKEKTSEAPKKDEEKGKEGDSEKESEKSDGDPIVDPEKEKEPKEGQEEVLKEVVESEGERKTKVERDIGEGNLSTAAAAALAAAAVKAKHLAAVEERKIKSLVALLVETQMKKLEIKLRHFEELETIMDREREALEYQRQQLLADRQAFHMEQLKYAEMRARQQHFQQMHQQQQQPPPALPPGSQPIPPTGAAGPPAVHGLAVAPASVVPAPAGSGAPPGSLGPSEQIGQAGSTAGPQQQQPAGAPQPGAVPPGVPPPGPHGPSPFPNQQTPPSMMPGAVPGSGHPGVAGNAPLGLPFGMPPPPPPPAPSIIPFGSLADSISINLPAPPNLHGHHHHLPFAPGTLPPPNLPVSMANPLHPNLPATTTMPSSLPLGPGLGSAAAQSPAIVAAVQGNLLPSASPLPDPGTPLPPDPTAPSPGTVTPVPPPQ
UniProt Q92922: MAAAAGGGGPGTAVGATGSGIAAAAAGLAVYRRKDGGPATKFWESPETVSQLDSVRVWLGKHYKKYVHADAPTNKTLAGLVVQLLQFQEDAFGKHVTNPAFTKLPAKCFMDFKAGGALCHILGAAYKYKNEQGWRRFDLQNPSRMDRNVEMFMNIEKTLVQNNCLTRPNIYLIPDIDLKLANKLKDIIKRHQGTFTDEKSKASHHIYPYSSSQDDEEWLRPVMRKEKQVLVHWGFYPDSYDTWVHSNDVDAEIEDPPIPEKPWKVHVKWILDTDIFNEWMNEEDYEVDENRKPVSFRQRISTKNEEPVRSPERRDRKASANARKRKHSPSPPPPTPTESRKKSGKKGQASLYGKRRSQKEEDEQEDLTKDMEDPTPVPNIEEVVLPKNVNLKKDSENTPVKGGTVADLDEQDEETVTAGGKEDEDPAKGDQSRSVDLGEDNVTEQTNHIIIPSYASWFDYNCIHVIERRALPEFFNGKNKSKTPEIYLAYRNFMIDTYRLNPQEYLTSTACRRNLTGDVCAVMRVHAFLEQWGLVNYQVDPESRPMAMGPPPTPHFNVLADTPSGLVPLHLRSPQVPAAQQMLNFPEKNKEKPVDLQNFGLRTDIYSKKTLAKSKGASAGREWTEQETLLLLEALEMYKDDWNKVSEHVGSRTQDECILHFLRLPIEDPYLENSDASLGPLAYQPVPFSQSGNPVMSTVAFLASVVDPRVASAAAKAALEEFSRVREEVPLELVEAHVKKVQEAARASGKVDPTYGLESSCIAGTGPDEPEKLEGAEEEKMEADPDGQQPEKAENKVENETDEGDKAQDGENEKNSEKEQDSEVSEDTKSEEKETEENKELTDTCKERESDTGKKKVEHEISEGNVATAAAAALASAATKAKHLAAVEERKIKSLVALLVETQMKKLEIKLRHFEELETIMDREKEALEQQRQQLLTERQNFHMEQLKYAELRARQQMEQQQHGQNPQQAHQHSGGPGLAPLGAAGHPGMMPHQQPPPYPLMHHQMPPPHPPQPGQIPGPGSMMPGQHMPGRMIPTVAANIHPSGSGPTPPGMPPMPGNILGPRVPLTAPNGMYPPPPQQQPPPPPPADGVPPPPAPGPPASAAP
UniProt Q92804: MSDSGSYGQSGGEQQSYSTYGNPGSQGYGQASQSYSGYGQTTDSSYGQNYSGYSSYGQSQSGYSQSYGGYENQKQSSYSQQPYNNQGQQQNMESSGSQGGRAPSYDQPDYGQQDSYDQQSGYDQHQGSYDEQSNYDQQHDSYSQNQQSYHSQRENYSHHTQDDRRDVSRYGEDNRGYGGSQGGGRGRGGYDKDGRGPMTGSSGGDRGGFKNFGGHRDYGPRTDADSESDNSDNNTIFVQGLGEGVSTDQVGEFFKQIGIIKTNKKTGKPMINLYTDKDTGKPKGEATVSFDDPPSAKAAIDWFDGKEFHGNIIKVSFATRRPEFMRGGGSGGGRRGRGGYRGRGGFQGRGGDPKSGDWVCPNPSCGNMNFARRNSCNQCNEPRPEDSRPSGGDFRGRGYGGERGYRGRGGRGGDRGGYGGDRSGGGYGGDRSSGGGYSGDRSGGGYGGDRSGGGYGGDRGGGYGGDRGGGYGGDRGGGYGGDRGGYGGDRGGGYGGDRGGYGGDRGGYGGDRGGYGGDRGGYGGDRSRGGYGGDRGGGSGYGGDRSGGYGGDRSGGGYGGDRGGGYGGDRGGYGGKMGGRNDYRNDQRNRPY
UniProt P11388: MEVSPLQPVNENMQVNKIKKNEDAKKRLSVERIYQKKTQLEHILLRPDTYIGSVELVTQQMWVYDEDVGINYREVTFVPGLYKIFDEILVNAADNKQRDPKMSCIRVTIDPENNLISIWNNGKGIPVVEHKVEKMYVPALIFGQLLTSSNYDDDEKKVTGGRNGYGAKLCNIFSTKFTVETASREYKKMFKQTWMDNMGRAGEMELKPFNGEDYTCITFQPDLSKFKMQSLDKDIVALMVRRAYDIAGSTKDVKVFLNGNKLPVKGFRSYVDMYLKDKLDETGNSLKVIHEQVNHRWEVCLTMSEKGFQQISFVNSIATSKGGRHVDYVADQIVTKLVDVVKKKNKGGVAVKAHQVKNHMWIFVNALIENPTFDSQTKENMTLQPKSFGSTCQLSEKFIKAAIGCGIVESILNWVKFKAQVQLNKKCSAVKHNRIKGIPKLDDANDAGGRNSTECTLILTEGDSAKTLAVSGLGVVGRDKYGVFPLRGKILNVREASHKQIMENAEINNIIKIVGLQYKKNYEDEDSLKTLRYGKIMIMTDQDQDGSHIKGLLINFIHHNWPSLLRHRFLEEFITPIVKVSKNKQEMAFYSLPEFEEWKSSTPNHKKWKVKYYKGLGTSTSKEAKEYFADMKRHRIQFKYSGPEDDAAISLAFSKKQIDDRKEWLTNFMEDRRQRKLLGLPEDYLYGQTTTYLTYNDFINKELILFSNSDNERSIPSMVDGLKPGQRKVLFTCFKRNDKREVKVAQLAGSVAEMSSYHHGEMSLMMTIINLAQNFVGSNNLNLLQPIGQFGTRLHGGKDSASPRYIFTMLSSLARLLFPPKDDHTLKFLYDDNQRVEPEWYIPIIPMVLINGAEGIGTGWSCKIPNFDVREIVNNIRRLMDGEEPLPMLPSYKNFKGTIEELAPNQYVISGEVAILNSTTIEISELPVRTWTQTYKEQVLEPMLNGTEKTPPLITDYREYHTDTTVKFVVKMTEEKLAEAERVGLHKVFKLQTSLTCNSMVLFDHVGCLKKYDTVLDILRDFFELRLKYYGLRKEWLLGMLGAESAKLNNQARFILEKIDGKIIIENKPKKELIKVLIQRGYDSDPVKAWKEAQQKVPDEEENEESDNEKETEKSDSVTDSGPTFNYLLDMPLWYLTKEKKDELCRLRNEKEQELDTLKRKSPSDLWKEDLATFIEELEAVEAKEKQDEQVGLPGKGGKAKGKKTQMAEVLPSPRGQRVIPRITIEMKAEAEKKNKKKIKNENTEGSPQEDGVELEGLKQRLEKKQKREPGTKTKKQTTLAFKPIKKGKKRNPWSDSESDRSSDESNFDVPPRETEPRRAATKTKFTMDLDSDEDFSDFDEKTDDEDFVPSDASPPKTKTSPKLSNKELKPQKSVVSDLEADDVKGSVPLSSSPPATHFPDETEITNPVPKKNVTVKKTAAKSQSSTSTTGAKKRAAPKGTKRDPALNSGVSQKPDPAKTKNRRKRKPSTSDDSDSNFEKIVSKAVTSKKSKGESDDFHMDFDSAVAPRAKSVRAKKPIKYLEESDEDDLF

[8] = molecular target: Brg1 (human (endogenous in K562)) (UniProt P51532)

## Brg1 (from UniProt P51532 1-1647)
[1]
  binding: binds

## SMARCC1 (from UniProt Q92922 1-1105)
[1]
  binding: binds

## SMARCC2 (from UniProt Q8TAQ2 1-1214)
[1]
  binding: binds

## TFII-I (endogenous, K562 nuclear extract) (from UniProt P78347 1-998)
[2]
  binding: binds
[3]
  binding: binds
[4]
  binding: binds
[5]
  binding: binds
[6]
  binding: binds
[7]
  binding: binds
[8]
  binding: binds

## topoisomerase II β (from UniProt Q02880 1-1626) (enzyme)
[1]
  binding: binds

Reference: PMC4081084
